Test: general procedure: Fmoc solid-phase peptide synthesis; Rink-Amide AM
Conditions: whole synthesis, analytical HPLC

H3C-CO-DAsn-DVal-DVal-DLys-NH2 (NVVK; N-acetyl, C-amide, D-amino acids)
final HPLC purity: 98%
